Assay results taken from patent US11656182B2, “Method, composition, and chip for detecting analyte in blood sample” (TERUMO KABUSHIKI KAISHA, priority 2016, dated 2023).

Each compound was assayed on blood sample (hematocrit value: 40) (assay: Spectrum analysis of detection chip after blood sample is deposited). Settings: 10 to 15 seconds, corrected to clearance 35 μm.

| Structure (SMILES) | Transmittance 545 nm, 575 nm (Hb absorption peak wavelength) |
| --- | --- |
| O=C([O-])C1=NN(c2ccc(S(=O)(=O)[O-])cc2)C(=O)C1N=Nc1ccc(S(=O)(=O)[O-])cc1.[Na+].[Na+].[Na+] (centres unmarked) [Acid Yellow 23] | ◯ (the transmittance of any one of the peak minimal values observed at 545 nm and 575 nm is 15% or more) |
| O=S(=O)(O)c1cccc(S(=O)(=O)O)c1 [DSB, 1,3-benzene disulfonate] | ⊙ (the transmittance of both the peak minimal values observed at 545 nm and 575 nm is 15% or more) |
| O=S(=O)(O)c1cc(S(=O)(=O)O)c2c(/N=N/c3ccccc3)c(O)ccc2c1 [Orange G] | ◯ (the transmittance of any one of the peak minimal values observed at 545 nm and 575 nm is 15% or more) |
| OC[C@H]1O[C@H](O[C@]2(CCl)O[C@H](CCl)[C@@H](O)[C@@H]2O)[C@H](O)[C@@H](O)[C@H]1Cl [Sucralose, sucralose] | ⊙ (the transmittance of both the peak minimal values observed at 545 nm and 575 nm is 15% or more) |
| OC[C@H]1O[C@H](O[C@H]2O[C@H](CO)[C@@H](O)[C@H](O)[C@H]2O)[C@H](O)[C@@H](O)[C@@H]1O [Trehalose, trehalose] | ⊙ (the transmittance of both the peak minimal values observed at 545 nm and 575 nm is 15% or more) |
